# Among all 400,000 compounds or so, about 3,700 (0.93%) were called active. Inconclusive means that the source gave no clear call. Such entries were picked first, then a sample of the others. Calls follow the shape of the dose curve; as a rule, active = well fitted inhibition curve with a large enough effect; inconclusive = small, poorly fitted or top-dose-only effect, or another doubt; inactive = no such curve, though single readings can be large or run the other way. A potency beside an inconclusive call is a rough fit, not a confirmed value.
# Chains of the proteins cited; added tags and fusions are not shown. Lines headed by an entry give the natural chain unless they say otherwise; changes in a name come on top.
# UniProt P11473: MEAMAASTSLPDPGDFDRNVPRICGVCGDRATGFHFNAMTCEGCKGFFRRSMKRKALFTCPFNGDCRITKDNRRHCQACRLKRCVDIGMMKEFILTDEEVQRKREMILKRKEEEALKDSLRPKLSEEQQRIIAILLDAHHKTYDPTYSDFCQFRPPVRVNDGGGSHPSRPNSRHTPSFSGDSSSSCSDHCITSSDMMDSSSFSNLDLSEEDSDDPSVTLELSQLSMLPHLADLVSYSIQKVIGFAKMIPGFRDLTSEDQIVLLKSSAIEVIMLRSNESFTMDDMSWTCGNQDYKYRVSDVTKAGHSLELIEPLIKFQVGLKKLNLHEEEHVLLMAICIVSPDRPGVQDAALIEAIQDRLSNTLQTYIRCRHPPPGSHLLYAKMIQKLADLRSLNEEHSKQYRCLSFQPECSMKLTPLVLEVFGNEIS
# Biological target: Vitamin D3 receptor (Homo sapiens) (UniProt P11473)
# Assay: Inhibitors of the vitamin D receptor (VDR): qHTS
# Conditions: VDR-SRC2-3 peptide fluorescence polarization, 2 h; max response, negative = inhibition: active compounds read low
# Method in brief: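 Inhibition of the VDR/SRC2-3 peptide interaction is quantified by fluorescence polarization. Compounds (23 nl, pintool) incubate with the reagents for 2 hours at ambient room temperature.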
# % is scaled to controls: 0 for no effect and ±100 for the full control effect; potency is read from the fitted curve at half-maximal effect.
Compound,Potency,"max response, negative = inhibition"
CCN(CC)C(=O)[C@H]1C[C@H](CC(=O)NCC23CC4CC(CC(C4)C2)C3)C(=O)N2CCc3c([nH]c4cc(CCC(=O)N(C)C)ccc34)[C@]12C,"inconclusive: 89.1 µM [inhibitor, single point]",–
Cn1c(=O)[nH]c(=O)c2c1[nH]c(=S)n2Cc1ccccc1,active: 89.1 µM,–
CCOc1ccccc1NC(=O)Cn1ccn(Cc2ccc(C)cc2)c(=O)c1=O,–,inactive: 10.8%
CC(=NCCc1ccccc1)C1=C(O)CSC1=O,"inconclusive: 10 µM [inhibitor, partial curve, poor fit]",–
CCCCOc1ccc(/C=C/C(=O)Nc2ccc(C(N)=O)cc2)cc1,active: 79.4 µM,–
O=C(c1ccncc1)N1CCC2(CC1)CN(c1cccc(-c3ccccc3)c1)C2,"inconclusive: 28.2 µM [inhibitor, partial curve, poor fit]",–
CCOC(=O)c1ccc(NC(=O)N2CCN(c3ccccc3OC)CC2)cc1,–,inactive: -1.56%
CCCC1CCc2c(sc(N)c2C(N)=O)C1 (stereo not given),"inconclusive: 79.4 µM [inhibitor, partial curve, poor fit]",–
COc1ccccc1NS(=O)(=O)c1cc(NC(=O)C(C)NC(N)=O)ccc1N1CCCC1 (stereo not given),"inconclusive: 100 µM [inhibitor, single point]",–
CCOC(=O)CN1N=C(c2ccc(C)cc2)CCC1=O,"inconclusive: 89.1 µM [inhibitor, single point]",–
N#Cc1c2ccc(OCC(=O)NCc3ccco3)cc2n2ccccc12,–,inactive: -10.1%
CC1(C)CC(=O)C(=Cc2cn(-c3ccccc3)nc2-c2ccccc2)C(=O)C1,"inconclusive: 89.1 µM [inhibitor, partial curve, poor fit]",–
COc1ccc(S(=O)(=O)N2CCN(Cc3cc(OC)c(OC)c(OC)c3)CC2)cc1,–,inactive: -13.5%
CC(C)c1cccc(C(C)C)c1NC(=O)CCl,–,inactive: -9%
Cc1cccc(N2CCN(C(=S)c3ccc4c(c3)OCO4)CC2)c1,active: 79.4 µM,–
Cc1ccc(C(=O)N/C(=C\c2ccc(-c3ccc(Br)cc3)o2)C(=O)NCCCN(C)C)cc1,–,inactive: 7.93%
O=c1[nH]c(-[n+]2ccccc2)c(/C=N/NC([S-])=Nc2ccccc2)s1,–,inactive: -11%
O=c1cc(CO)oc(C(Nc2ccccn2)c2ccc(F)cc2)c1O (stereo not given),active: 28.2 µM,–
CC12C=C(/C=C/CCc3ccco3)C(C)(C1)[C@H](CCc1ccco1)CC2=O (stereo not given in full),"inconclusive: 50.1 µM [inhibitor, partial curve]",–
CC(=O)/C=C/n1c(=S)oc2ccccc21,"inconclusive: 25.1 µM [inhibitor, full curve]",–

# A draw from above in order of molar mass, low to high.
Compound,Potency,"max response, negative = inhibition"
N#Cc1c2ccc(OCC(=O)NCc3ccco3)cc2n2ccccc12,–,inactive: -10.1%
O=C(c1ccncc1)N1CCC2(CC1)CN(c1cccc(-c3ccccc3)c1)C2,"inconclusive: 28.2 µM [inhibitor, partial curve, poor fit]",–
CCOc1ccccc1NC(=O)Cn1ccn(Cc2ccc(C)cc2)c(=O)c1=O,–,inactive: 10.8%

# — PubChem BioAssay AID504847 (National Center for Advancing Translational Sciences (NCATS), 2011)
